No constants are given. Whether binding was seen depends on the method and setting. Binding seen in cells or lysates may run through a third protein. Some binding calls cover weakened binding; strength is not graded here.
Target: p21-activated kinase 1 (PAK1) (rat (endogenous in primary rat OPCs)) (UniProt P35465)
Experiment: co-IP; PAK1 antibody (#2602) or rabbit IgG isotype control cross-linked to Protein A/G magnetic beads; 1 mg OPC protein extract, overnight at 4 °C; low-pH elution; immunoblot for PDGFRa

By UniProt entry, the sequences of proteins in these tests, tags left out. Residues count along the entry.
UniProt P35465: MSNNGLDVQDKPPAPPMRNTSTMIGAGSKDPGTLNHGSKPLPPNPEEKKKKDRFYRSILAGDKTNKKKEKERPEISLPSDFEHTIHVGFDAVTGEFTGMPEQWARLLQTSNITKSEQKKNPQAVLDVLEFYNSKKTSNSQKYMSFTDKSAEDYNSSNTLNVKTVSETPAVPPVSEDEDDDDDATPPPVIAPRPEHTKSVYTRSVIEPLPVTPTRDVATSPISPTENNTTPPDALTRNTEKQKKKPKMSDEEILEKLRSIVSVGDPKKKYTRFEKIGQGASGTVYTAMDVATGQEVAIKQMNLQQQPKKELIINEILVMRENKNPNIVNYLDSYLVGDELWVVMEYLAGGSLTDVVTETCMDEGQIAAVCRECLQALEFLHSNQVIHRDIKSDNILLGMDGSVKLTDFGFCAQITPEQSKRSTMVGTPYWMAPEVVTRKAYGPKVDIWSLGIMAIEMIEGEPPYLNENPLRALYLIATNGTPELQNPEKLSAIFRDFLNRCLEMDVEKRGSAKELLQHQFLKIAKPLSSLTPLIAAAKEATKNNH
UniProt P20786, residues 24-1088: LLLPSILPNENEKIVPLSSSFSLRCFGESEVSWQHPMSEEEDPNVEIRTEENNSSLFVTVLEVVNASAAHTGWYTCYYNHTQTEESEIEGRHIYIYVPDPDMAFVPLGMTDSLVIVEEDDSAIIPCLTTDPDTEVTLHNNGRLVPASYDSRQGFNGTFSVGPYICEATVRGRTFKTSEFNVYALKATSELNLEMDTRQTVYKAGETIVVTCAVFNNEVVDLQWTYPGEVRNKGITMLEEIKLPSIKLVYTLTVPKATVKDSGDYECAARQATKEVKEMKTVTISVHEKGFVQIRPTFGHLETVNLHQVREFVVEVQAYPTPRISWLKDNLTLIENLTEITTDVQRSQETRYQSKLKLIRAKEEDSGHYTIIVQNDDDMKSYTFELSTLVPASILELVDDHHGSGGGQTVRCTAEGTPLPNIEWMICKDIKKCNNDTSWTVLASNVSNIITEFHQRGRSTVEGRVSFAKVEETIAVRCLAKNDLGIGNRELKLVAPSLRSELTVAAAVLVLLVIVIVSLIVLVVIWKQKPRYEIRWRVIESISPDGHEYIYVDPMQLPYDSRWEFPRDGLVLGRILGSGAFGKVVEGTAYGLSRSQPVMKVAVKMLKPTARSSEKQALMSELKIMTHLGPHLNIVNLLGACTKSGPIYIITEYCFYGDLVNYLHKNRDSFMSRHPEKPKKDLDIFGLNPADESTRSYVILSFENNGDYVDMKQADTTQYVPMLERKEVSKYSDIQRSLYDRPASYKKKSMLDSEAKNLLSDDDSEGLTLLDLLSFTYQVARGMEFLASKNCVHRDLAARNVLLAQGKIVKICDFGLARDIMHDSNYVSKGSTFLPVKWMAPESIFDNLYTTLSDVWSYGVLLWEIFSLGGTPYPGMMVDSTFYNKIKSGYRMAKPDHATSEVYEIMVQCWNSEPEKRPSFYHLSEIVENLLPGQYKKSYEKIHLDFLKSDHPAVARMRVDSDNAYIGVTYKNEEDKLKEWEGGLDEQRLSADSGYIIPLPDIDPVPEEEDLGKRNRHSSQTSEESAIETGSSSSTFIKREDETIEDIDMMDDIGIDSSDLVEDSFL

“PDGFRa (from UniProt P20786 24-1088) (receptor)” was tested. Which binding did it give?
The binding was “binds”.
